Assay results published in paper PMC5073310.

Chains of the proteins cited; added tags and fusions are not shown. Lines headed by an entry give the natural chain unless they say otherwise; changes in a name come on top.
UniProt Q96C92: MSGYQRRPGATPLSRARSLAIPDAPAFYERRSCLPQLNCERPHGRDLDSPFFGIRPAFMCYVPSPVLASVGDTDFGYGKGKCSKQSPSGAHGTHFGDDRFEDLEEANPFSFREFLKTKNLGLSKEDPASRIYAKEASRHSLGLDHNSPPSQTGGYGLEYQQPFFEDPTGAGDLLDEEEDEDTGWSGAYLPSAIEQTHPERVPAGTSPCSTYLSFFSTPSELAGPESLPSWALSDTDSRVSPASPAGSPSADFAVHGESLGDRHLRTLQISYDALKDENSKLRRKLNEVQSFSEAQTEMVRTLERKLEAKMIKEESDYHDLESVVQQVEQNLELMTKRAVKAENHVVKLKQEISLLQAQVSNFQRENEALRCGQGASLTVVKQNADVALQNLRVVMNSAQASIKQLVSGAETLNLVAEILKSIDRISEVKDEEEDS

T1: EGFP-IFT88 (full-length) (human) (UniProt Q13099)
T1 sequence: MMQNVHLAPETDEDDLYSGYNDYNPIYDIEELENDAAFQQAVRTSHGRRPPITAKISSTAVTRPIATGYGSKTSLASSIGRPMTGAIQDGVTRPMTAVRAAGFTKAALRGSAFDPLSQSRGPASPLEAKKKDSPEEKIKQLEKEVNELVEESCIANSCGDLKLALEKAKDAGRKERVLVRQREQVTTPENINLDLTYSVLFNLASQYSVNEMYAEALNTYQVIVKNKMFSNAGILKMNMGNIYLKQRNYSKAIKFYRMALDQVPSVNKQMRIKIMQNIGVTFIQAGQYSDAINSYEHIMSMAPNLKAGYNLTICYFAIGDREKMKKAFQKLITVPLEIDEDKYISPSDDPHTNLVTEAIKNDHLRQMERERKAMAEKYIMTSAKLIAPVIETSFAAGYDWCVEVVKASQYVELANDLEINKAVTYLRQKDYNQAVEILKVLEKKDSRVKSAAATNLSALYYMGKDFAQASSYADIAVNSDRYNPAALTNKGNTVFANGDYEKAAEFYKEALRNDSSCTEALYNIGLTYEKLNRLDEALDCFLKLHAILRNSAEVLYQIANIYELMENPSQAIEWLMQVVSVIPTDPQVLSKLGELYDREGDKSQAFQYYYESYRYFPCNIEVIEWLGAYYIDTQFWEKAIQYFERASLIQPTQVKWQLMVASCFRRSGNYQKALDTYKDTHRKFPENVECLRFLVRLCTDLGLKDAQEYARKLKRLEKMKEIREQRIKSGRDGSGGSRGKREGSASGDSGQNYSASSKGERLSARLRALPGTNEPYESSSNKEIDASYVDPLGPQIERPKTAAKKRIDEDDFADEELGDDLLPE


How the values were obtained:
[1] = target: T1, EGFP-IFT88 (full-length) (human); test: pull-down; GFP-Trap_A pulldown of mixed lysates of cells transfected with myc-SDCCAG3 or GFP fusion proteins, 2 h at 4 °C; 50mM HEPES pH 7.5, 150mM NaCl, 1% Triton X-100; western blot with anti-myc and anti-GFP
[2] = target: GST-SDCCAG3 (full-length) (human) (UniProt Q96C92); test: pull-down; GST-fusion proteins on glutathione agarose 4B beads incubated with lysates of transfected HeLa, Cos7 or HEK293 cells, 3 h at 4 °C, 1 x PBS, 0.5% Triton X-100; western blot with anti-GFP; only the target purified
[3] = target: GST-SDCCAG3 1-100aa (human) (UniProt Q96C92); test: as above
[4] = target: GST-fusion protein of SDCCAG3 lacking amino acids 1-100 (human) (UniProt Q96C92); test: as above

Molecule	binding [1]	binding [2]	binding [3]	binding [4]
EGFP-IFT88 (full-length) (protein, UniProt Q13099 1-824) MMQNVHLAPETDEDDLYSGYNDYNPIYDIEELENDAAFQQAVRTSHGRRPPITAKISSTAVTRPIATGYGSKTSLASSIGRPMTGAIQDGVTRPMTAVRAAGFTKAALRGSAFDPLSQSRGPASPLEAKKKDSPEEKIKQLEKEVNELVEESCIANSCGDLKLALEKAKDAGRKERVLVRQREQVTTPENINLDLTYSVLFNLASQYSVNEMYAEALNTYQVIVKNKMFSNAGILKMNMGNIYLKQRNYSKAIKFYRMALDQVPSVNKQMRIKIMQNIGVTFIQAGQYSDAINSYEHIMSMAPNLKAGYNLTICYFAIGDREKMKKAFQKLITVPLEIDEDKYISPSDDPHTNLVTEAIKNDHLRQMERERKAMAEKYIMTSAKLIAPVIETSFAAGYDWCVEVVKASQYVELANDLEINKAVTYLRQKDYNQAVEILKVLEKKDSRVKSAAATNLSALYYMGKDFAQASSYADIAVNSDRYNPAALTNKGNTVFANGDYEKAAEFYKEALRNDSSCTEALYNIGLTYEKLNRLDEALDCFLKLHAILRNSAEVLYQIANIYELMENPSQAIEWLMQVVSVIPTDPQVLSKLGELYDREGDKSQAFQYYYESYRYFPCNIEVIEWLGAYYIDTQFWEKAIQYFERASLIQPTQVKWQLMVASCFRRSGNYQKALDTYKDTHRKFPENVECLRFLVRLCTDLGLKDAQEYARKLKRLEKMKEIREQRIKSGRDGSGGSRGKREGSASGDSGQNYSASSKGERLSARLRALPGTNEPYESSSNKEIDASYVDPLGPQIERPKTAAKKRIDEDDFADEELGDDLLPE		binds	binds	binds weakly
EGFP-IFT88 aa400-550 (domain or fragment, UniProt Q13099 400-550) WCVEVVKASQYVELANDLEINKAVTYLRQKDYNQAVEILKVLEKKDSRVKSAAATNLSALYYMGKDFAQASSYADIAVNSDRYNPAALTNKGNTVFANGDYEKAAEFYKEALRNDSSCTEALYNIGLTYEKLNRLDEALDCFLKLHAILRN		binds	binds	

Continued, values first:

binding [1]	binding [2]	binding [3]	binding [4]	Molecule
binds				Myc-SDCCAG3 (from UniProt Q96C92-2)
	no binding	no binding		EGFP-IFT88Δaa400-550 (protein, UniProt Q13099) MMQNVHLAPETDEDDLYSGYNDYNPIYDIEELENDAAFQQAVRTSHGRRPPITAKISSTAVTRPIATGYGSKTSLASSIGRPMTGAIQDGVTRPMTAVRAAGFTKAALRGSAFDPLSQSRGPASPLEAKKKDSPEEKIKQLEKEVNELVEESCIANSCGDLKLALEKAKDAGRKERVLVRQREQVTTPENINLDLTYSVLFNLASQYSVNEMYAEALNTYQVIVKNKMFSNAGILKMNMGNIYLKQRNYSKAIKFYRMALDQVPSVNKQMRIKIMQNIGVTFIQAGQYSDAINSYEHIMSMAPNLKAGYNLTICYFAIGDREKMKKAFQKLITVPLEIDEDKYISPSDDPHTNLVTEAIKNDHLRQMERERKAMAEKYIMTSAKLIAPVIETSFAAGYDSAEVLYQIANIYELMENPSQAIEWLMQVVSVIPTDPQVLSKLGELYDREGDKSQAFQYYYESYRYFPCNIEVIEWLGAYYIDTQFWEKAIQYFERASLIQPTQVKWQLMVASCFRRSGNYQKALDTYKDTHRKFPENVECLRFLVRLCTDLGLKDAQEYARKLKRLEKMKEIREQRIKSGRDGSGGSRGKREGSASGDSGQNYSASSKGERLSARLRALPGTNEPYESSSNKEIDASYVDPLGPQIERPKTAAKKRIDEDDFADEELGDDLLPE

These are yes or no findings as the source states them, for the method shown. In cells and extracts the contact can be indirect. A result given as binding can be weak or reduced; the word gives no strength. Where a sequence is shown, tags or fusion partners need not be part of it.
